Measurements from the supplement of paper PMC10849652.
The list shows a part of the results.

The chains behind the UniProt entries cited, without tags or fusion partners. Where a name states a change or a piece, a line headed by the entry shows the natural chain unless it says otherwise.
UniProt Q14240, whole entry, looked up: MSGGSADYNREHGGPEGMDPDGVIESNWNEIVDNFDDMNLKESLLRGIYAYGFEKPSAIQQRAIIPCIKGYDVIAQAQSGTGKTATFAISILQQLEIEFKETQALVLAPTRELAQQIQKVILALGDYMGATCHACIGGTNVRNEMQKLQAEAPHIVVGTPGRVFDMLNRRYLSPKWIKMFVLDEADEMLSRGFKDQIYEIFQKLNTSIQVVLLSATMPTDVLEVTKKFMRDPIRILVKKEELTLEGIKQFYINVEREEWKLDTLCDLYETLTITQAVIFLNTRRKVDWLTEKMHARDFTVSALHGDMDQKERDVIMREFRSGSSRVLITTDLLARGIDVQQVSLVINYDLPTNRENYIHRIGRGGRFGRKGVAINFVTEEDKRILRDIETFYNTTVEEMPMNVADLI
UniProt Q9Y262, whole entry, looked up: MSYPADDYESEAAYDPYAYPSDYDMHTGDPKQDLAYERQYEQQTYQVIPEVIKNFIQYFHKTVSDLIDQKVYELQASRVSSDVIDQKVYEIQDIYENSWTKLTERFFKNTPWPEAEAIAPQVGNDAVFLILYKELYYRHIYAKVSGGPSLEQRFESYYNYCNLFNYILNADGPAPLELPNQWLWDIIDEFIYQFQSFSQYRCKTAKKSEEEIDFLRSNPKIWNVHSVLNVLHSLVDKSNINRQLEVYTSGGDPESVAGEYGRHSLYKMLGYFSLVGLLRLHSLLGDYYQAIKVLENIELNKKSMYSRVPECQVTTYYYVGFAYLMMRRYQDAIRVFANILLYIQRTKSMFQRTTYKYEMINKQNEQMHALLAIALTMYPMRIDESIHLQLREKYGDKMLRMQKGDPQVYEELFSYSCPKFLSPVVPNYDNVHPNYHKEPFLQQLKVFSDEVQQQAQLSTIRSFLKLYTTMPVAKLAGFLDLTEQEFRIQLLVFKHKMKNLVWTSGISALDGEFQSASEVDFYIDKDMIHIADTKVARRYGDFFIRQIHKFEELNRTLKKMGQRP
UniProt Q7L2H7, whole entry, looked up: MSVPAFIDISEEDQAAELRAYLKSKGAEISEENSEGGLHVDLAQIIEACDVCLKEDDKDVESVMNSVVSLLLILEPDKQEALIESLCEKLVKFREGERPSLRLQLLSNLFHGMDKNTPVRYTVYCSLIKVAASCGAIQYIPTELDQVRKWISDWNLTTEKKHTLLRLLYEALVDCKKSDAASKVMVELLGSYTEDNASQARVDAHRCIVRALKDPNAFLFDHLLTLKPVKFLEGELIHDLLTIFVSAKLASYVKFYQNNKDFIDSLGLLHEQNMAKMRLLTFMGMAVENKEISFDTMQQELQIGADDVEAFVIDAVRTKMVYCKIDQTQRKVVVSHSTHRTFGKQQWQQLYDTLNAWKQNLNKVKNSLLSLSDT
UniProt P09104, whole entry, looked up: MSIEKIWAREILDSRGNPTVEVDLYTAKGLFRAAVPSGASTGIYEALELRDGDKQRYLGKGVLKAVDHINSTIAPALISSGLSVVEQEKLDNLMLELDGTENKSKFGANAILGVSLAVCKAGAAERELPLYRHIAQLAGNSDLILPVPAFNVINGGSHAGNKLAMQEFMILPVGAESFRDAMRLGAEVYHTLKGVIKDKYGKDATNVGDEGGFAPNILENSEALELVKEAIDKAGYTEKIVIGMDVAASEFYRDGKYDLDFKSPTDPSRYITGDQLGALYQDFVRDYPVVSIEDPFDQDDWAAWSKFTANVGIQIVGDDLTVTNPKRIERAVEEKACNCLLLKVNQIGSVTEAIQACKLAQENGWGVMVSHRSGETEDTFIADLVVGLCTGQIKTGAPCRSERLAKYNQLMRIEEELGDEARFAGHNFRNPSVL
UniProt Q99613, whole entry, looked up: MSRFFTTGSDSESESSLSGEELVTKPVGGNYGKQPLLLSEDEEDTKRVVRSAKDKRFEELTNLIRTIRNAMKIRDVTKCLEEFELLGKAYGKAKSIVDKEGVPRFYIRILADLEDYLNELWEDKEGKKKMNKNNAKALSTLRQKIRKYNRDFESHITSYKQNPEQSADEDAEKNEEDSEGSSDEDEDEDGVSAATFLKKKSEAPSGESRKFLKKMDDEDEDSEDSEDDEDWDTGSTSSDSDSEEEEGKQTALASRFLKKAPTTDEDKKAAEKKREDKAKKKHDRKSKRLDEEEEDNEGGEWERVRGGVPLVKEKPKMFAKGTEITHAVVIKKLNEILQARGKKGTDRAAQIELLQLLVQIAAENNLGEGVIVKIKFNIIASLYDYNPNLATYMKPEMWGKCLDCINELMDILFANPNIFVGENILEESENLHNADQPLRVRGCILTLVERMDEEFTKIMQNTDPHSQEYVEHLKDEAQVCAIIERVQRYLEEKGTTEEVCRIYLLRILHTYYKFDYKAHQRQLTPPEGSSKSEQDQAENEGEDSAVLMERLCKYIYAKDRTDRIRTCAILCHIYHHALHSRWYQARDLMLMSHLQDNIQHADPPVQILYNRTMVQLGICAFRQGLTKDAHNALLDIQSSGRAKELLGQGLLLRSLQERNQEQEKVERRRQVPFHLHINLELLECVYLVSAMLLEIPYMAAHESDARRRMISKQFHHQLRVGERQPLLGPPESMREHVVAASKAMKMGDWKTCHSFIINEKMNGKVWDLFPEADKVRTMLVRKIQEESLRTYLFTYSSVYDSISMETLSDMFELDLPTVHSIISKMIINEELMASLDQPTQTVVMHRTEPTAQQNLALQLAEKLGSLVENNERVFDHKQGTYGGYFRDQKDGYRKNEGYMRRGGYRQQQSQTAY
UniProt Q8N9N8: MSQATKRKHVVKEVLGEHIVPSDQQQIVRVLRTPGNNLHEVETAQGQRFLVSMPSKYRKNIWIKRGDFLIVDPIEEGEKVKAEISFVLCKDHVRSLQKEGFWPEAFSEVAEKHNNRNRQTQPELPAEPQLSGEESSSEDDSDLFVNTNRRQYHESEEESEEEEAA
UniProt O43324: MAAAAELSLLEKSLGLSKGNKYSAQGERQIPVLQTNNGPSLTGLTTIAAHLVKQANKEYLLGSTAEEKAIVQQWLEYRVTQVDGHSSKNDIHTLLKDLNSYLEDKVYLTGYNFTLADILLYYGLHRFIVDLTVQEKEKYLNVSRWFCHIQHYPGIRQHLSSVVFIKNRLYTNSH
UniProt P05198, whole entry, looked up: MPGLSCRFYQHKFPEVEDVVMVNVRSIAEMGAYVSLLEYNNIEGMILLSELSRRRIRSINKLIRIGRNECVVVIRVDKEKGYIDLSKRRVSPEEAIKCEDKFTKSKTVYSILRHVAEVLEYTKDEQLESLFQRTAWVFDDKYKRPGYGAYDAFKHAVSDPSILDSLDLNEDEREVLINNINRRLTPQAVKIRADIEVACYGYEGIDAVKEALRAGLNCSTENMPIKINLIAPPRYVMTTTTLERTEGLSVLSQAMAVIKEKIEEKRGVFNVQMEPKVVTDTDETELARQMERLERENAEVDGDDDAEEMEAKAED
UniProt Q9H9B1: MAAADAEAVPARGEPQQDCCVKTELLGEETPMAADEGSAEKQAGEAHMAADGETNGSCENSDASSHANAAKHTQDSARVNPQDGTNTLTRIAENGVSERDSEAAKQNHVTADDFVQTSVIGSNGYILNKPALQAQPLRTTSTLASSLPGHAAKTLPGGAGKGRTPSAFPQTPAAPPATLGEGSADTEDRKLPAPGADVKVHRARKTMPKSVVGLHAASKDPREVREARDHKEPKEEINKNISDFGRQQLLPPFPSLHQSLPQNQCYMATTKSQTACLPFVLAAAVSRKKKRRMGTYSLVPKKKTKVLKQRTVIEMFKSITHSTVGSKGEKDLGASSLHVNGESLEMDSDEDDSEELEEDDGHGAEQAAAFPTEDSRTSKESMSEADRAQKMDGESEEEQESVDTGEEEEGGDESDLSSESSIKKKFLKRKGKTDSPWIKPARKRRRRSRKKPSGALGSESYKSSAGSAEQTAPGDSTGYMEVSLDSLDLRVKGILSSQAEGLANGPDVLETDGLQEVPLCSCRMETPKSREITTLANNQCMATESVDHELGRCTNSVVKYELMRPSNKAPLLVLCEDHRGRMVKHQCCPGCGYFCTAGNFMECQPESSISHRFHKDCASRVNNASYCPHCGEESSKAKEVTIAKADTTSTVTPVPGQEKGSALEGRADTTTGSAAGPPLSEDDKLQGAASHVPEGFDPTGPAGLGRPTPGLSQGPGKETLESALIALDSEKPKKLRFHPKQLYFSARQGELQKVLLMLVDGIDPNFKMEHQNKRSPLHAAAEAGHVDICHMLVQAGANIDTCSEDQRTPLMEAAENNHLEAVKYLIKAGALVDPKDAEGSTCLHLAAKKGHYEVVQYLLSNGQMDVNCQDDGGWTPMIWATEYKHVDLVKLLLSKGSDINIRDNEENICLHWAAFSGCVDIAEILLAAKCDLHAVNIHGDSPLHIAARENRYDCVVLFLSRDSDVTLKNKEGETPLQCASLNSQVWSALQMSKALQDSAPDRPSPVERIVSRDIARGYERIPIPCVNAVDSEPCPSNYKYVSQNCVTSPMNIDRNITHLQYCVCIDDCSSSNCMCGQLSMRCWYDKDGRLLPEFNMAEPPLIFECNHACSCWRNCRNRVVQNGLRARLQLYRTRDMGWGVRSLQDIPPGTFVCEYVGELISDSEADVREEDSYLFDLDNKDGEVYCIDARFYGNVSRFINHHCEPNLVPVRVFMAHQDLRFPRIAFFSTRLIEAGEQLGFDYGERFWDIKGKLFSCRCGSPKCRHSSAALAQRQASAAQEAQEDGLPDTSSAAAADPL
UniProt Q13541: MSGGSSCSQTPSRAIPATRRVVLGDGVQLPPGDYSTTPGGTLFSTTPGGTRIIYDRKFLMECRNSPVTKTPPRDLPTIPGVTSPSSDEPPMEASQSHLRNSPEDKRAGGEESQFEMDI
UniProt O43768: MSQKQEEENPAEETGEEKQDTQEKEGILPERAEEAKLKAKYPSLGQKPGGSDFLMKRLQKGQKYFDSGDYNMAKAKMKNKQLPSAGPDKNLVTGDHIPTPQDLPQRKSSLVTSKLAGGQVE
UniProt Q6IA86: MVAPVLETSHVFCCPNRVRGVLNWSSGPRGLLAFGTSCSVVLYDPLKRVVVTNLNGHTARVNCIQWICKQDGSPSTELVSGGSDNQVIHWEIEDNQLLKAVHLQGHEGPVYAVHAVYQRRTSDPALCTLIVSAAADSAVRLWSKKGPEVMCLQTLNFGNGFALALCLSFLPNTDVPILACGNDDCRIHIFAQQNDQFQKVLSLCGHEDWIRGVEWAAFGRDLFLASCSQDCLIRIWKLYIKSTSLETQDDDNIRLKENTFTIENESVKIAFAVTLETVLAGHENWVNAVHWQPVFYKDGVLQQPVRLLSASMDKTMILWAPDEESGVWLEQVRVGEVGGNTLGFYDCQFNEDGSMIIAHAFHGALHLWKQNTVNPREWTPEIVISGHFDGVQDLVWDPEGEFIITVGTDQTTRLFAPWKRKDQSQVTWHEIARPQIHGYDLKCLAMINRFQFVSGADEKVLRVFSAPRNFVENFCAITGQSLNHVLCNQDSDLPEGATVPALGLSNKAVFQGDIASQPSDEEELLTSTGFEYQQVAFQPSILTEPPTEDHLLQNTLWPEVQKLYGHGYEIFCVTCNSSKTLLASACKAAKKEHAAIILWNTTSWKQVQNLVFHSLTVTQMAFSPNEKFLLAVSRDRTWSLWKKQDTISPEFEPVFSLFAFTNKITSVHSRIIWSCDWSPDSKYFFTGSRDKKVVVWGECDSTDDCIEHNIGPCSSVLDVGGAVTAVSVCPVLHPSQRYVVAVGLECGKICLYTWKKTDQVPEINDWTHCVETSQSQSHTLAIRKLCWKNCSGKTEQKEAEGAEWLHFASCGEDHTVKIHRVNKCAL
UniProt Q53HC9: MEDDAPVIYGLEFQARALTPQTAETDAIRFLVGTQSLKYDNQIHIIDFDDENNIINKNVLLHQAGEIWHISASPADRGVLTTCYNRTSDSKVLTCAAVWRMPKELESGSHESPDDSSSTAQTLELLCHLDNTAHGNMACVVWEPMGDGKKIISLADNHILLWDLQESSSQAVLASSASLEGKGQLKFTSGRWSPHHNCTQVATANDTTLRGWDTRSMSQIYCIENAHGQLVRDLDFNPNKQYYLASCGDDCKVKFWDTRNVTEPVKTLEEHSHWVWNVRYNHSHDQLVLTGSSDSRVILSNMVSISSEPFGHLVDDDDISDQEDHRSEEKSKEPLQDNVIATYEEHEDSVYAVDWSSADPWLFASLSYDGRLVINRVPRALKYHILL
UniProt Q5VTE0, whole entry, looked up: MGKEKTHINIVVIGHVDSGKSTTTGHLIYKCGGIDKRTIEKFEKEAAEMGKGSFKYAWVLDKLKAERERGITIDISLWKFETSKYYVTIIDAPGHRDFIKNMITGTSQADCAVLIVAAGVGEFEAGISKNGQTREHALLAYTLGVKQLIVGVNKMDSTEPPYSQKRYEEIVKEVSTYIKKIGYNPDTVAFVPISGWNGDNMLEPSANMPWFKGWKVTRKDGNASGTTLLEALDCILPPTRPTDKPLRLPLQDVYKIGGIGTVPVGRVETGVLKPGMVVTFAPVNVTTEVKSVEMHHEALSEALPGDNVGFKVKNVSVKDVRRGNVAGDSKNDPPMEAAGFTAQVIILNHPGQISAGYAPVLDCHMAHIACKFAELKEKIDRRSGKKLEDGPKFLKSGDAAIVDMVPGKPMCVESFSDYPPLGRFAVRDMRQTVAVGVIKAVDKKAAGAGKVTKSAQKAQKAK

Key:
Assay in all cases: log2 fold change, soluble protein after heating vs DMSO (PISA); higher = thermal stabilisation; K562 cells, 10 uM, 30 min; active = over 0.2 and 3.5 SD of the protein, either way, in both replicates (recomputed)
[1] = compound: CS(=O)(=O)c1ccc(-c2cnc(N)c(C(=O)Nc3ccccc3)n2)cc1
Summary of the method: (§1)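 Thermal stability values are relative to control samples and come from duplicates. They are expressed as log2 fold changes. For measurement, K562 cells (2×10^6 cells/mL) received 10 μM compound for 30 min, and aliquots were heated for 3 min over 48°C-58°C, pooled, and extracted at 4°C in PBS with 0.5% NP-40. Soluble protein, the supernatant after 21,000xg for 90 min, was quantified by TMTpro 16plex LC-MS/MS with equalised channel sums.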

crizotinib = compound: C[C@@H](Oc1cc(-c2cnn(C3CCNCC3)c2)cnc1N)c1c(Cl)ccc(F)c1Cl [crizotinib]
Summary of the method: as §1

[2] = compound: C[C@@H]1COCCN1C2=NC(=NC(=C2)C3(CC3)S(=O)(=O)C)C4=C5C=CNC5=CC=C4
Summary of the method: as §1

[3] = compound: C[C@H](C1=CC=C(C=C1)C(=O)NC2=C3C=CNC3=NC=C2)N
Summary of the method: as §1

duvelisib = compound: C[C@H](Nc1ncnc2nc[nH]c12)c1cc2cccc(Cl)c2c(=O)n1-c1ccccc1 [duvelisib]
Summary of the method: as §1

gandotinib = compound: Cc1cc(Nc2cc(CN3CCOCC3)c3nc(C)c(Cc4ccc(Cl)cc4F)n3n2)n[nH]1 [gandotinib]
Summary of the method: as §1

tozasertib = compound: Cc1cc(Nc2cc(N3CCN(C)CC3)nc(Sc3ccc(NC(=O)C4CC4)cc3)n2)n[nH]1 [tozasertib]
Summary of the method: as §1

[4] = compound: Cc1cc(SCc2sc(-c3ccc(C(F)(F)F)cc3)nc2C)ccc1OCC(=O)O
Summary of the method: as §1

doramapimod = compound: Cc1ccc(-n2nc(C(C)(C)C)cc2NC(=O)Nc2ccc(OCCN3CCOCC3)c3ccccc23)cc1 [doramapimod]
Summary of the method: as §1

ispinesib = compound: Cc1ccc(C(=O)N(CCCN)[C@@H](c2nc3cc(Cl)ccc3c(=O)n2Cc2ccccc2)C(C)C)cc1 [ispinesib]
Summary of the method: as §1

Measured: log2 fold change

EHD4 (UniProt Q9H223)
inactive: [1] 0.011 | crizotinib -0.066 | [2] 0.079 | [3] -0.024 | duvelisib 0.029 | gandotinib -0.062 | tozasertib -0.005 | [4] -0.002 | doramapimod -0.005 | ispinesib -0.066

EMC7 (UniProt Q9NPA0)
inactive: [1] -0.011 | crizotinib 0.018 | [2] 0.029 | [3] -0.005 | duvelisib 0.066 | gandotinib -0.071 | tozasertib -0.006 | [4] -0.012 | doramapimod -0.016 | ispinesib -0.055

EIF2B1 (UniProt Q14232)
inactive: [1] -0.012 | crizotinib 0.016 | [2] -0.002 | [3] -0.119 | duvelisib 0 | gandotinib 0.029 | tozasertib -0.002 | [4] -0.001 | doramapimod -0.048 | ispinesib 0.042

EIF3F (UniProt O00303)
inactive: [1] -0.02 | crizotinib 0.037 | [2] 0.073 | [3] 0.05 | duvelisib 0.03 | gandotinib -0.028 | tozasertib 0.108 | [4] 0.1 | doramapimod 0.059 | ispinesib -0.014

Two successive entries from above:
EHD4 (UniProt Q9H223)
inactive: [1] 0.011 | crizotinib -0.066 | [2] 0.079 | [3] -0.024 | duvelisib 0.029 | gandotinib -0.062 | tozasertib -0.005 | [4] -0.002 | doramapimod -0.005 | ispinesib -0.066

EMC7 (UniProt Q9NPA0)
inactive: [1] -0.011 | crizotinib 0.018 | [2] 0.029 | [3] -0.005 | duvelisib 0.066 | gandotinib -0.071 | tozasertib -0.006 | [4] -0.012 | doramapimod -0.016 | ispinesib -0.055

Additional results follow.

EIF4A2 isoform 2 (UniProt Q14240)
inactive: [1] -0.035 | crizotinib -0.009 | [2] 0.016 | [3] -0.037 | duvelisib 0.03 | gandotinib -0.118 | tozasertib -0.012 | [4] 0.032 | doramapimod 0 | ispinesib -0.015

EIF3L (UniProt Q9Y262)
inactive: [1] -0.023 | crizotinib -0.064 | [2] 0.015 | [3] -0.022 | duvelisib 0.052 | gandotinib -0.044 | tozasertib -0.012 | [4] -0.001 | doramapimod 0.015 | ispinesib 0.003

ELOF1 (UniProt P60002)
inactive: [1] -0.117 | crizotinib 0.117 | [2] -0.055 | [3] -0.002 | duvelisib -0.1 | gandotinib -0.082 | tozasertib -0.074 | [4] 0.118 | doramapimod -0.295 | ispinesib -0.023

EIF3M (UniProt Q7L2H7)
inactive: [1] -0.017 | crizotinib -0.042 | [2] -0.01 | [3] 0.003 | duvelisib 0.031 | gandotinib -0.044 | tozasertib 0.069 | [4] 0.076 | doramapimod -0.043 | ispinesib 0.003

EIF4H (UniProt Q15056)
inactive: [1] -0.002 | crizotinib -0.04 | [2] 0.008 | [3] -0.095 | duvelisib -0.02 | gandotinib -0.035 | tozasertib -0.025 | [4] -0.009 | doramapimod 0 | ispinesib -0.032

ENO2 (UniProt P09104)
inactive: [1] -0.024 | crizotinib -0.047 | [2] 0.038 | [3] -0.067 | duvelisib 0.033 | gandotinib -0.007 | tozasertib -0.008 | [4] -0.029 | doramapimod -0.007 | ispinesib -0.019

EIF3C (UniProt Q99613)
inactive: [1] -0.025 | crizotinib -0.178 | [2] -0.028 | [3] 0.223 | duvelisib -0.062 | gandotinib -0.01 | tozasertib 0.076 | [4] 0.115 | doramapimod 0.127 | ispinesib -0.221

EIF1AD (UniProt Q8N9N8)
inactive: [1] 0.025 | crizotinib 0.057 | [2] 0.056 | [3] -0.019 | duvelisib 0.067 | gandotinib 0.042 | tozasertib -0.029 | [4] -0.027 | doramapimod -0.028 | ispinesib 0.003

EIF4G2 (UniProt P78344)
inactive: [1] 0.015 | crizotinib -0.157 | [2] -0.197 | [3] 0.438 | duvelisib -0.11 | gandotinib -0.011 | tozasertib 0.032 | [4] 0.138 | doramapimod 0.224 | ispinesib -0.324

EEF1E1 (UniProt O43324)
inactive: [1] 0.027 | crizotinib -0.04 | [2] -0.025 | [3] 0.039 | duvelisib 0.02 | gandotinib 0 | tozasertib -0.01 | [4] 0.052 | doramapimod 0.15 | ispinesib -0.158

ELP1 (UniProt O95163)
inactive: [1] 0.031 | crizotinib 0 | [2] 0.027 | [3] -0.021 | duvelisib 0.034 | gandotinib -0.051 | tozasertib -0.009 | [4] 0.006 | doramapimod 0.014 | ispinesib 0.015

EIF2S1 (UniProt P05198)
inactive: [1] -0.023 | crizotinib -0.013 | [2] -0.115 | [3] 0.105 | duvelisib -0.007 | gandotinib 0.067 | tozasertib -0.029 | [4] 0.013 | doramapimod 0.048 | ispinesib -0.101

EIF3I (UniProt Q13347)
inactive: [1] 0.022 | crizotinib -0.137 | [2] -0.019 | [3] 0.143 | duvelisib 0.033 | gandotinib -0.01 | tozasertib 0.063 | [4] 0.146 | doramapimod 0.023 | ispinesib -0.122

EEF1AKMT2 (UniProt Q5JPI9)
inactive: [1] -0.085

EIF2AK4 (UniProt Q9P2K8)
inactive: [1] -0.071 | crizotinib 0.017 | [2] 0.02 | [3] 0.128 | duvelisib 0.003 | gandotinib -0.026 | tozasertib 0.081 | [4] 0.055 | doramapimod 0.077 | ispinesib -0.249

EHMT1 (UniProt Q9H9B1)
inactive: [1] -0.108 | crizotinib -0.023 | [2] -0.017 | [3] 0.172 | duvelisib -0.032 | gandotinib 0.21 | tozasertib 0.07 | [4] 0.062 | doramapimod 0.026 | ispinesib -0.118

EIF4EBP1 (UniProt Q13541)
inactive: [1] -0.062 | crizotinib 0.046 | [2] 0.214 | [3] -0.073 | duvelisib 0.065 | gandotinib 0.044 | tozasertib 0.017 | [4] 0.003 | doramapimod 0.076 | ispinesib 0.041

EEF2 (UniProt P13639)
inactive: [1] -0.004 | crizotinib 0.018 | [2] 0.026 | [3] -0.062 | duvelisib 0.003 | gandotinib -0.005 | tozasertib -0.027 | [4] -0.041 | doramapimod -0.023 | ispinesib 0.073

ELP4 isoform 3 (UniProt Q96EB1)
inactive: [1] -0.002 | crizotinib 0.041 | [2] -0.018 | [3] -0.064 | duvelisib 0.003 | gandotinib 0.04 | tozasertib -0.028 | [4] -0.032 | doramapimod -0.003 | ispinesib 0.029

ENSA isoform 3 (UniProt O43768)
inactive: [1] 0.024 | crizotinib -0.004 | [2] 0.012 | [3] -0.097 | duvelisib 0.011 | gandotinib -0.035 | tozasertib -0.02 | [4] -0.062 | doramapimod 0.001 | ispinesib 0

ELP2 isoform 6 (UniProt Q6IA86)
inactive: [1] 0.009 | crizotinib -0.01 | [2] 0.03 | [3] -0.03 | duvelisib 0.031 | gandotinib -0.039 | tozasertib -0.005 | [4] 0.052 | doramapimod -0.022 | ispinesib 0.061

EIF2A (UniProt Q9BY44)
inactive: [1] -0.063 | crizotinib 0.008 | [2] -0.113 | [3] 0.034 | duvelisib -0.023 | gandotinib 0.046 | tozasertib 0.025 | [4] 0.037 | doramapimod 0.011 | ispinesib 0.022

EIPR1 (UniProt Q53HC9)
inactive: [1] 0.041 | crizotinib 0.105 | [2] -0.046 | [3] -0.022 | duvelisib -0.016 | gandotinib 0.036 | tozasertib 0.042 | [4] -0.021 | doramapimod -0.038 | ispinesib 0.1

EEF1A1P5 (UniProt Q5VTE0)
inactive: [1] 0.036 | crizotinib -0.1 | [2] 0.018 | [3] -0.016 | duvelisib 0.007 | gandotinib -0.047 | tozasertib -0.068 | [4] -0.011 | doramapimod -0.006 | ispinesib -0.004

EIF2D (UniProt P41214)
inactive: [1] 0.056 | crizotinib -0.138 | [2] 0.031 | [3] 0.224 | duvelisib -0.035 | gandotinib -0.076 | tozasertib -0.008 | [4] 0.106 | doramapimod 0.117 | ispinesib -0.057

EML2 isoform 3 (UniProt O95834)
inactive: [1] -0.001 | crizotinib -0.123 | [2] 0.112 | [3] -0.043 | duvelisib 0.029 | gandotinib -0.043 | tozasertib -0.005 | [4] 0.001 | doramapimod -0.004 | ispinesib -0.003
